Test results: article PMC12680359
These are yes or no findings as the source states them, for the method shown. Binding seen in cells or lysates may run through a third protein. These calls come from enrichment with a bait or labelling near it, and not all partners need be listed.

By UniProt entry, the sequences of proteins in these tests, tags left out.
UniProt Q44636: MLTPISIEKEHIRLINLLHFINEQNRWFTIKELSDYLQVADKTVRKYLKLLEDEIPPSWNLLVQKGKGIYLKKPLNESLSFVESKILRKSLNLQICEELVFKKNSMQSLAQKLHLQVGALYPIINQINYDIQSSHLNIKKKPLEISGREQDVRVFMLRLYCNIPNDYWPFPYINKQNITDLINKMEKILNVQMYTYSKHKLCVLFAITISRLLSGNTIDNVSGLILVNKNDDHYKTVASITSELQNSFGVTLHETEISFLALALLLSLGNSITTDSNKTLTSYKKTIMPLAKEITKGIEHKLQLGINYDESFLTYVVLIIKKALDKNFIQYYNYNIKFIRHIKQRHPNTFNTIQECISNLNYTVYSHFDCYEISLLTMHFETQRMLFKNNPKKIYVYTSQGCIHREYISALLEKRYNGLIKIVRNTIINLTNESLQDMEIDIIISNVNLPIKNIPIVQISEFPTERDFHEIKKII

Target: AtxA-His6 (AtxA-TEV-His6, expressed from pAMY1-atxA) (B. anthracis) (UniProt Q44636)
Assay: affinity purification with mass spectrometry; […]; binding […] at 4°C; […]

B1: pyruvate carboxylase Pyc (enzyme, UniProt A0A6L7HFM3 1-1148)
chain: MTKLQRIQKVLVANRGEIAIRVFRACSELGLKTVAIYSKEDSGSYHRYKADESYLVGEGKKPIDAYLDIEGIIEIAKSNHVDAIHPGYGFLSENIQFAKRCEEEGIIFIGPKSKHLDMFGDKVKARTQAQLAQIPVIPGSDGPVDSLEEVKEFAEKYDYPIIIKASLGGGGRGMRIVRTSEELRESYNRAKSEAKAAFGNDEVYVEKFVEKPKHIEVQILADEEGNVVHLYERDCSVQRRHQKVVEIAPSVSLSDDLRQRICEAAVKLTKNVNYLNAGTVEFLVKDDNFYFIEVNPRVQVEHTITEMITGVDIVQSQILIADGHALHSKMVGVPKQEEVVVHGFAIQSRVTTEDPLNNFMPDTGKIMAYRSGGGFGVRLDTGNSFQGAVIAPYYDSLLVKVTTWALTFEQAAAKMERNLKEFRIRGIKTNIPFLENVVKHKNFLSGEYDTSFIDASPELFLFPKRKDRGTKMLNYIGTVTVNGFPGVGKKEKPIFPDARIPNVLHSEPIQNGTKQILDERGADGLVKWVQDQKRVLLTDTTFRDAHQSLLATRIRTKDLHQIAEPTARMLPNLFSAEMWGGATFDVAYRFLKEDPWERLLDLREKMPNVLFQMLLRSSNAVGYKNYPDNLIQKFVECSAQAGIDVFRIFDSLNWVEGMRVAIDAVRDTGKIAEATMCYTGDIHDPMRSKYDLNYYKNLAKELEVSGAHILGIKDMAGLLKPNAAYDLVSALKETVSIPIHLHTHDTSGNGILTYTKAIEAGVDIVDVAVSSMAGQTSQPSANTLYYALGGNERQPDVNIDSLEKLSHYWEDVRKYYAPFESGMNAPHTEVYMHEMPGGQYSNLQQQAKVVGLGDRFDEVKVMYRRVNDMFGDIVKVTPSSKVVGDMALFMVQNHLTEQDVLERGHSMDFPGSVVEMFSGDLGQPYGGFPKKLQEIILKGKEPLTVRPGELLEPVDFDALKEELFHKLGREVTMFDVVAYALYPKVFMDYEKVAELYGNVSVLDTPTFFYGMRLGEEIDVEIEQGKTLMVKLVSIGELQPDGNRVLYLEFNGQPREIVVKDESVKATVAQRVKGNRENPNHISATMPGTVIKVVVKEGDEVKKGDSMAITEAMKMETTVQAPFNGKVKKVYVNDGDAIQTGDLLIELDH
In the case of B1, the binding is reported as “binds”.
